{"source": "the supplement of paper PMC8256030", "note": "Where “and” joins values, the source holds several entries; their conditions need not be identical. Equal entries are not always repeated. Structures can show the parent of a compound that is named as a salt. The list shows a part of the results. Single values are uncertain here, since repeats match poorly.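 HEK293T cells were given each compound shortly before transfection with a reporter in which red mCherry is followed by the SARS-CoV-2 frameshift element and then GFP in the −1 frame, so GFP appears only after frameshifting.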"}
{"test_system": "HEK293T", "assay": "percent viability (nuclei count) relative to control; higher = more viable cells", "details": "10 µM; 24 h"}
{"smiles": "CCN(CC)CCOCCOC(=O)C(CC)(CC)c1ccccc1", "percent viability": "67.3%"}
{"smiles": "O=C(O)c1ccccc1OP(=O)(O)O", "note": "[fosfosal]", "percent viability": "351%"}
{"smiles": "NC(N)=NS(=O)(=O)c1ccc(N)cc1", "percent viability": "171%"}
{"smiles": "CC(C)(C)NC[C@H](O)COc1nsnc1N1CCOCC1", "note": "[(S)-Timolol maleate]", "percent viability": "243%"}
{"smiles": "C[N+](C)(C)CCOC(N)=O", "note": "[carbachol]", "percent viability": "75.8% and 208%"}
{"smiles": "CCN1CCC(=C2c3ccccc3CCc3ccccc32)C1C", "note": "(stereo not given) [piroheptine]", "percent viability": "187%"}
{"smiles": "CCn1cc(C(=O)O)c(=O)c2cc(F)c(N3CCN(C)CC3)cc21", "percent viability": "304%"}
{"smiles": "Cc1c(OCC(F)(F)F)ccnc1C[S@@+]([O-])c1nc2ccccc2[nH]1", "note": "[dexlansoprazole]", "percent viability": "35.9%"}
{"smiles": "CCC(=O)O[C@]1(C(=O)CCl)[C@@H](C)C[C@H]2[C@@H]3CCC4=CC(=O)C=C[C@]4(C)[C@@]3(F)[C@@H](O)C[C@@]21C", "note": "[Clobetasol Propionate]", "percent viability": "15%"}
{"smiles": "CN1CCN(CCCN2c3ccccc3Sc3ccc(C(F)(F)F)cc32)CC1", "note": "[trifluoperazine]", "percent viability": "220% and 436%"}
{"smiles": "CCC1(c2ccccc2)NC(=O)N(C)C1=O", "note": "(stereo not given) [mephenytoin]", "percent viability": "267%"}
{"smiles": "CNC(=O)c1cnn(-c2nc(N)c3ncn([C@@H]4O[C@H](CO)[C@@H](O)[C@H]4O)c3n2)c1", "note": "[regadenoson]", "percent viability": "272%"}
{"smiles": "CCCc1nc(C(C)(C)O)c(C(=O)OCc2oc(=O)oc2C)n1Cc1ccc(-c2ccccc2-c2nnn[nH]2)cc1", "note": "[olmesartan medoxomil]", "percent viability": "252% and 290% and 280%"}
{"smiles": "CC(=O)NCCCCCC(=O)O", "note": "[acexamic acid]", "percent viability": "336%"}
{"smiles": "CS(=O)(=O)c1cc(C2(NC(=O)c3cncc4c3cnn4-c3ccc(F)cc3)CC2)ccn1", "percent viability": "43.2%"}
{"smiles": "CCCCC/C=C\\C/C=C\\C/C=C\\CCCCCCC(=O)O", "percent viability": "273%"}
{"smiles": "CC(=O)OCC1=C(C(=O)O)N2C(=O)[C@@H](NC(=O)CC#N)[C@H]2SC1", "note": "[Celospor]", "percent viability": "78.5%"}
{"smiles": "CCCCCCCCCCCCCCOS(=O)(=O)O", "note": "[Sodium Tetradecyl Sulfate]", "percent viability": "214%"}
{"smiles": "C[C@@H]1C[C@H]2[C@@H]3C[C@H](F)C4=CC(=O)C=C[C@]4(C)[C@H]3[C@@H](O)C[C@]2(C)[C@H]1C(=O)CO", "note": "[fluocortolone]", "percent viability": "225%"}
{"smiles": "Cc1cccc(C)c1NC(=O)CN(CC(=O)O)CC(=O)O", "note": "[lidofenin]", "percent viability": "96.9%"}
{"smiles": "O=C(NCCS(=O)(=O)O)c1cccs1", "note": "[taurosteine]", "percent viability": "276%"}
{"smiles": "Cc1ccccc1-c1cc(N2CCN(C)CC2)ncc1N(C)C(=O)C(C)(C)c1cc(C(F)(F)F)cc(C(F)(F)F)c1", "note": "[netupitant]", "percent viability": "277%"}
{"smiles": "C=CCn1c(=O)n([C@@H]2O[C@H](CO)[C@@H](O)[C@H]2O)c2nc(N)[nH]c(=O)c21", "note": "[loxoribine]", "percent viability": "99.6%"}
{"smiles": "CO[C@@H]1[C@H](OC(=O)/C=C/C=C/C=C/C=C/C(=O)O)CC[C@]2(CO2)[C@H]1[C@@]1(C)O[C@@H]1CC=C(C)C", "note": "[Fumagillin]", "percent viability": "306%"}
{"smiles": "N#Cc1cc(I)c(O)c([N+](=O)[O-])c1", "note": "[nitroxinil]", "percent viability": "117%"}
{"smiles": "CN(N=O)C(=O)N[C@@H]1[C@@H](O)[C@H](O)[C@@H](CO)O[C@@H]1O", "note": "[streptozocin]", "percent viability": "145%"}
{"smiles": "COc1ccc(C(=O)NCc2ccc(OCCN(C)C)cc2)cc1OC", "note": "[itopride]", "percent viability": "224% and 251%"}
{"smiles": "COC(=O)c1ccccc1O", "note": "[Methyl salicylate]", "percent viability": "324%"}
{"smiles": "N[C@H](Cc1cnc[nH]1)C(=O)O", "percent viability": "149%"}
{"smiles": "NC[C@H]1O[C@H](O[C@H]2[C@H](O)[C@@H](O[C@H]3O[C@H](CO)[C@@H](O)[C@H](N)[C@H]3O)[C@H](N)C[C@@H]2N)[C@H](N)[C@@H](O)[C@@H]1O", "percent viability": "168%"}
{"smiles": "O=C1C(CC[S+]([O-])c2ccccc2)C(=O)N(c2ccccc2)N1c1ccccc1", "note": "(stereo not given) [sulfinpyrazone]", "percent viability": "158%"}
{"smiles": "Cn1c(=O)cc(N2CCC[C@@H](N)C2)n(Cc2ccccc2C#N)c1=O", "note": "[Alogliptin]", "percent viability": "374%"}
{"smiles": "CC(C)C[C@H](NC(=O)[C@@H](COC(C)(C)C)NC(=O)[C@H](Cc1ccc(O)cc1)NC(=O)[C@H](CO)NC(=O)[C@H](Cc1c[nH]c2ccccc12)NC(=O)[C@H](Cc1cnc[nH]1)NC(=O)[C@@H]1CCC(=O)N1)C(=O)N[C@@H](CCCNC(=N)N)C(=O)N1CCC[C@H]1C(=O)NNC(N)=O", "note": "[Goserelin]", "percent viability": "270% and 254%"}
{"smiles": "C/C=C/C(=O)N(CCC)C(CC)C(=O)N(C)C", "note": "(stereo not given) [cropropamide]", "percent viability": "81.1%"}
{"smiles": "CC(C)(Oc1ccc(Cl)cc1)C(=O)OCc1cccnc1", "note": "[nicofibrate]", "percent viability": "211%"}
{"smiles": "CC(=O)c1ccc2c(c1)N(CCCN(C)C)c1ccccc1S2", "percent viability": "427%"}
{"smiles": "CC(C)[C@H](N)C(=O)OCCOCn1cnc2c(=O)nc(N)[nH]c21", "percent viability": "130%"}
{"smiles": "CCOC(=O)c1ccc(O)cc1", "percent viability": "175%"}
{"smiles": "COCCc1ccccn1", "note": "[metyridine]", "percent viability": "226%"}
{"smiles": "CC[C@H]1OC(=O)[C@H](C)[C@@H](O[C@H]2C[C@@](C)(OC)[C@@H](O)[C@H](C)O2)[C@H](C)[C@@H](O[C@@H]2O[C@H](C)C[C@H](N(C)C)[C@H]2O)[C@](C)(O)C[C@](C)(F)C(=O)[C@H](C)[C@@H](O)[C@]1(C)O", "note": "[flurithromycin]", "percent viability": "319%"}
